These are yes or no findings as the source states them, for the method shown. For some assays here: Binding seen in cells or lysates may run through a third protein. Some results given as binding are weak or reduced against the parent protein; the word gives no strength. Tags and fused reporters may be left off the sequences shown.
T1: Klp5_(436)GST (S. pombe) (UniProt O14343)
T1 sequence: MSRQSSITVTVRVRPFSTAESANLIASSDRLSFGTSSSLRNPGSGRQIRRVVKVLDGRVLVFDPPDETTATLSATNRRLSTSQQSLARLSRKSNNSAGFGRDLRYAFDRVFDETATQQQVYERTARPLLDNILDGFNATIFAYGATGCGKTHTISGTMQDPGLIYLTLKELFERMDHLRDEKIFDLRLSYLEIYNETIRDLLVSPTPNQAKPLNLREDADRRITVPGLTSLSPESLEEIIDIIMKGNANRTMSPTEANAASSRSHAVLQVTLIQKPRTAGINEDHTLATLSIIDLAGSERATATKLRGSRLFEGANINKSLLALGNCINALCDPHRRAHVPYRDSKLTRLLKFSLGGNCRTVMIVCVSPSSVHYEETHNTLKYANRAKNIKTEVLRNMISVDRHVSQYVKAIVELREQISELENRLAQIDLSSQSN

B1: Klp6_(440)His (domain or fragment, S. pombe, UniProt O59751 1-440, looked up)
chain: MKEGSSISVAVRVRPFTEREKGLLAETPKSKEFLGDGSLAVSNTSSNTFCTNGIRKIVRVLDDNVLIFDPPEENPLAKVQKSLLPAGKRFRDVRYAFDRLFGEEASQEDVYKGTTEPLLDSVLQGYNATVFAYGATGCGKTHTISGRPDDPGIIFLTMRALLDRVEGLKRTMNVDISVSYLEIYNEKIRDLLVQDPLSMEKPKSLNICEDAEQNVSVPGLSYFTPTNLEEVMEIIIRGNSNRTMSPTEANAVSSRSHAVLQIYITQTPKSGEKQEESESQNSHKVRSVFSFIDLAGSERASATKNRGKRLVEGANINRSLLALGNCINSLCEPRRRQHVPYRDSKLTRLLKFSLGGNCRTCMIVCISPSSEHYDETHNTLKYGNRAKNIKTKVSRNVVSVDRHVSEYVRTIYELRQKVSILQKRIAEESKQLALNKEVRK
notes: Klp6 of S. pombe, amino acids 1-440: motor domain and complete putative coiled-coil domain; Homodimer by Superose 12 gel filtration; also called Klp6(aa1-440)/GlyGly/6xHis tag; Klp440His; source: E. coli Rosetta 2 (DE3), purified (HisTrap); not shown: His6 (after a GlyGly linker), C-terminal, kept
B2: Klp6_(415)His (domain or fragment, UniProt O59751 1-415)
chain: MKEGSSISVAVRVRPFTEREKGLLAETPKSKEFLGDGSLAVSNTSSNTFCTNGIRKIVRVLDDNVLIFDPPEENPLAKVQKSLLPAGKRFRDVRYAFDRLFGEEASQEDVYKGTTEPLLDSVLQGYNATVFAYGATGCGKTHTISGRPDDPGIIFLTMRALLDRVEGLKRTMNVDISVSYLEIYNEKIRDLLVQDPLSMEKPKSLNICEDAEQNVSVPGLSYFTPTNLEEVMEIIIRGNSNRTMSPTEANAVSSRSHAVLQIYITQTPKSGEKQEESESQNSHKVRSVFSFIDLAGSERASATKNRGKRLVEGANINRSLLALGNCINSLCEPRRRQHVPYRDSKLTRLLKFSLGGNCRTCMIVCISPSSEHYDETHNTLKYGNRAKNIKTKVSRNVVSVDRHVSEYVRTIYELR

Assays:
Klp5_(436)GST (S. pombe) = biological target: T1, Klp5_(436)GST (S. pombe); assay: pull-down; co-expressed in E. coli; sequential affinity purification from the bacterial lysate by the His tag (Ni column) and then the GST tag (eluted with 10 mM glutathione); SDS-PAGE, densitometry
Klp6_(415)His (S. pombe) = Klp6_(415)His (S. pombe) (UniProt O59751); assay: SEC; Superose-12 HR 10/300 GL at 4°C, 0.5 ml/min, 100 mM PIPES, 200 mM NaCl, 1 mM MgCl2, 2 mM EDTA, pH 6.9; elution compared with Ovalbumin (43 kDa) and Bovine Serum Albumin (67 kDa); both purified

| Binder | binding (Klp5_(436)GST (S. pombe)) | binding (Klp6_(415)His (S. pombe)) |
| --- | --- | --- |
| B1 | binds |  |
| B2 |  | no binding |

Source: paper PMC3282699, “S. pombe Kinesins-8 Promote Both Nucleation and Catastrophe of Microtubules” (PLoS ONE, 2012)
